Experimental data taken from the supplement of paper PMC8728848.
Some of the results follow.

How the values were obtained:
Assay in all cases: glycan array binding signal (z-score within array); higher = stronger binding
Conditions in all cases: glycan notation: IUPAC condensed, linker removed
[1] = biological target: Gal(b1-4)GlcNAc(b1-2)Man(a1-6)[Man(a1-3)]Man(b1-4)GlcNAc(b1-4)GlcNAc
Procedure, shortened: (§1)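 The binding signal is a Z-score computed within each array. Data were drawn from 3228 arrays in the Consortium for Functional Glycomics database, restricted to those with a known protein sequence. Scores were averaged over arrays of the same protein sequence at different concentrations or buffers, and over linkers, and negative values can be taken as non-binding.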

[2] = biological target: Gal(b1-4)GlcNAc(b1-2)[Gal(b1-4)GlcNAc(b1-4)]Man(a1-3)[Gal(b1-4)GlcNAc(b1-2)Man(a1-6)]Man(b1-4)GlcNAc(b1-4)GlcNAc
Procedure, shortened: as §1

[3] = biological target: Gal(b1-4)GlcNAc(b1-2)[Gal(b1-4)GlcNAc(b1-4)]Man(a1-3)[Gal(b1-4)GlcNAc(b1-2)[Gal(b1-4)GlcNAc(b1-6)]Man(a1-6)]Man(b1-4)GlcNAc(b1-4)GlcNAc
Procedure, shortened: as §1

[4] = biological target: Gal(b1-4)GlcNAc(b1-2)[Gal(b1-4)GlcNAc(b1-4)]Man(a1-3)[GlcNAc(b1-4)][Gal(b1-4)GlcNAc(b1-2)Man(a1-6)]Man(b1-4)GlcNAc(b1-4)GlcNAc
Procedure, shortened: as §1

[5] = biological target: Gal(b1-4)GlcNAc(b1-2)[Gal(b1-4)GlcNAc(b1-4)]Man(a1-3)[GlcNAc(b1-4)][Gal(b1-4)GlcNAc(b1-2)[Gal(b1-4)GlcNAc(b1-6)]Man(a1-6)]Man(b1-4)GlcNAc(b1-4)GlcNAc
Procedure, shortened: as §1

[6] = biological target: Gal(b1-4)GlcNAc(b1-2)[Gal(b1-4)GlcNAc(b1-6)]Man(a1-6)[Gal(b1-4)GlcNAc(b1-2)Man(a1-3)]Man(b1-4)GlcNAc(b1-4)GlcNAc
Procedure, shortened: as §1

[7] = biological target: Gal(b1-4)GlcNAc(b1-2)[Gal(b1-4)GlcNAc(b1-6)]Man(a1-6)[Gal(b1-4)GlcNAc(b1-2)Man(a1-3)]Man(b1-4)GlcNAc(b1-4)[Fuc(a1-6)]GlcNAc
Procedure, shortened: as §1

[8] = biological target: Gal(b1-4)GlcNAc(b1-2)[Gal(b1-4)GlcNAc(b1-6)]Man(a1-6)[GlcNAc(b1-4)][Gal(b1-4)GlcNAc(b1-2)Man(a1-3)]Man(b1-4)GlcNAc(b1-4)GlcNAc
Procedure, shortened: as §1

[9] = biological target: Gal(b1-4)GlcNAc(b1-2)[Gal(b1-4)GlcNAc(b1-6)]Man(a1-6)[GlcNAc(b1-4)][Gal(b1-4)GlcNAc(b1-2)[Gal(b1-4)GlcNAc(b1-4)]Man(a1-3)]Man(b1-4)GlcNAc(b1-4)[Fuc(a1-6)]GlcNAc
Procedure, shortened: as §1

[10] = biological target: Gal(b1-4)GlcNAc(b1-3)Gal(b1-3)GalNAc
Procedure, shortened: as §1

[11] = biological target: Gal(b1-4)GlcNAc(b1-3)Gal(b1-3)GlcNAc
Procedure, shortened: as §1

[12] = biological target: Gal(b1-4)GlcNAc(b1-3)Gal(b1-4)Glc
Procedure, shortened: as §1

[13] = biological target: Gal(b1-4)GlcNAc(b1-3)Gal(b1-4)GlcNAc
Procedure, shortened: as §1

[14] = biological target: Gal(b1-4)GlcNAc(b1-3)Gal(b1-4)GlcNAc(b1-2)Man(a1-3)[Gal(b1-4)GlcNAc(b1-3)Gal(b1-4)GlcNAc(b1-2)Man(a1-6)]Man(b1-4)GlcNAc(b1-4)GlcNAc
Procedure, shortened: as §1

[15] = biological target: Gal(b1-4)GlcNAc(b1-3)Gal(b1-4)GlcNAc(b1-2)Man(a1-3)[Gal(b1-4)GlcNAc(b1-3)Gal(b1-4)GlcNAc(b1-2)Man(a1-6)]Man(b1-4)GlcNAc(b1-4)[Fuc(a1-6)]GlcNAc
Procedure, shortened: as §1

[16] = biological target: Gal(b1-4)GlcNAc(b1-3)Gal(b1-4)GlcNAc(b1-2)[Gal(b1-4)GlcNAc(b1-3)Gal(b1-4)GlcNAc(b1-6)]Man(a1-6)[Gal(b1-4)GlcNAc(b1-3)Gal(b1-4)GlcNAc(b1-2)Man(a1-3)]Man(b1-4)GlcNAc(b1-4)GlcNAc
Procedure, shortened: as §1

[17] = biological target: Gal(b1-4)GlcNAc(b1-3)Gal(b1-4)GlcNAc(b1-2)[Gal(b1-4)GlcNAc(b1-3)Gal(b1-4)GlcNAc(b1-6)]Man(a1-6)[Gal(b1-4)GlcNAc(b1-3)Gal(b1-4)GlcNAc(b1-2)Man(a1-3)]Man(b1-4)GlcNAc(b1-4)[Fuc(a1-6)]GlcNAc
Procedure, shortened: as §1

[18] = biological target: Gal(b1-4)GlcNAc(b1-3)Gal(b1-4)GlcNAc(b1-3)Gal(b1-4)GlcNAc
Procedure, shortened: as §1

[19] = biological target: Gal(b1-4)GlcNAc(b1-3)Gal(b1-4)GlcNAc(b1-3)Gal(b1-4)GlcNAc(b1-2)Man(a1-3)[Gal(b1-4)GlcNAc(b1-3)Gal(b1-4)GlcNAc(b1-3)Gal(b1-4)GlcNAc(b1-2)Man(a1-6)]Man(b1-4)GlcNAc(b1-4)GlcNAc
Procedure, shortened: as §1

[20] = biological target: Gal(b1-4)GlcNAc(b1-3)Gal(b1-4)GlcNAc(b1-3)Gal(b1-4)GlcNAc(b1-2)Man(a1-3)[Gal(b1-4)GlcNAc(b1-3)Gal(b1-4)GlcNAc(b1-3)Gal(b1-4)GlcNAc(b1-2)Man(a1-6)]Man(b1-4)GlcNAc(b1-4)[Fuc(a1-6)]GlcNAc
Procedure, shortened: as §1

[21] = biological target: Gal(b1-4)GlcNAc(b1-3)Gal(b1-4)GlcNAc(b1-3)Gal(b1-4)GlcNAc(b1-2)[Gal(b1-4)GlcNAc(b1-3)Gal(b1-4)GlcNAc(b1-3)Gal(b1-4)GlcNAc(b1-6)]Man(a1-6)[Gal(b1-4)GlcNAc(b1-3)Gal(b1-4)GlcNAc(b1-3)Gal(b1-4)GlcNAc(b1-2)Man(a1-3)]Man(b1-4)GlcNAc(b1-4)[Fuc(a1-6)]GlcNAc
Procedure, shortened: as §1

[22] = biological target: Gal(b1-4)GlcNAc(b1-3)Gal(b1-4)GlcNAc(b1-3)Gal(b1-4)GlcNAc(b1-3)Gal(b1-4)GlcNAc(b1-2)Man(a1-3)[Gal(b1-4)GlcNAc(b1-3)Gal(b1-4)GlcNAc(b1-3)Gal(b1-4)GlcNAc(b1-3)Gal(b1-4)GlcNAc(b1-2)Man(a1-6)]Man(b1-4)GlcNAc(b1-4)GlcNAc
Procedure, shortened: as §1

B1: Loc1 (Escherichia coli) (protein)
chain: APCALTNVGEQRGTYILKPLSMKGNLTAEKIENTGNIIECTDLQETTNAIKVHFLTQNALKFKVGSRHYIINFPFEYDGKKIELPGKSSYNLEEMLSAINFTIPYSIASVSDSSNTADIFPGTPFPLLFEIEVSSCTGNNTNCNSVRFNYNLNTILQVNLMTHHHHHH
In the case of B1, the “glycan array binding signal (z-score)” value [1] is reported as 1.03, the “glycan array binding signal (z-score)” value [2] is reported as -0.504 and the “glycan array binding signal (z-score)” value [3] is reported as -0.441. For the same binder, the “glycan array binding signal (z-score)” value [4] was -0.473, the “glycan array binding signal (z-score)” value [5] was -0.38 and the “glycan array binding signal (z-score)” value [6] was -0.148. For the same binder, the “glycan array binding signal (z-score)” value [7] was -0.213, the “glycan array binding signal (z-score)” value [8] was 0.016 and the “glycan array binding signal (z-score)” value [9] was 0.242. The “glycan array binding signal (z-score)” value [10] was 0.355, the “glycan array binding signal (z-score)” value [11] was 0.195 and the “glycan array binding signal (z-score)” value [12] was 0.057. For the same binder, the “glycan array binding signal (z-score)” value [13] was 0.267, the “glycan array binding signal (z-score)” value [14] was 0.193 and the “glycan array binding signal (z-score)” value [15] was -0.121. For the same binder, the “glycan array binding signal (z-score)” value [16] was 1.74, the “glycan array binding signal (z-score)” value [17] was 2.29 and the “glycan array binding signal (z-score)” value [18] was -1.06. The “glycan array binding signal (z-score)” value [19] was 0.862, the “glycan array binding signal (z-score)” value [20] was 0.598 and the “glycan array binding signal (z-score)” value [21] was 1.02. The “glycan array binding signal (z-score)” value [22] was 0.053.
